Substitutions are numbered along the chain they refer to. Some of the results follow. At the low end of the ranking the order means little.
What was measured:
Settings in all cases: yeast three-hybrid, YBZ-1, SC-Leu-His + 0.5 mM 3-AT, 4 days
[1] = molecular target: T1, PUM1 PUF domain R1-QFR R2-VFQ R7-NPG S863Q + R864F + Q867R + N899V + Y900F + S1079N + N1080P + E1083G (UniProt Q14671)
T1 sequence: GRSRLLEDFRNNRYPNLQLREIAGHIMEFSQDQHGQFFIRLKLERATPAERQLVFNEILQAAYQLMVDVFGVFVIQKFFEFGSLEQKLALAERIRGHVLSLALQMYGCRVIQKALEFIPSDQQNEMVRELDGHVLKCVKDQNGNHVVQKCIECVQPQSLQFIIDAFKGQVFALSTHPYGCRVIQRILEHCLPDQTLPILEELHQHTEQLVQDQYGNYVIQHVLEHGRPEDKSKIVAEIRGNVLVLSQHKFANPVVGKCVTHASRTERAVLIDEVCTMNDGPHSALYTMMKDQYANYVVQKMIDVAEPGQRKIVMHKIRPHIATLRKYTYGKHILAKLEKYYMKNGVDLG

[2] = molecular target: T2, PUM1 PUF domain R2-VFQ R3-THE R4-TFR N899V + Y900F + C935T + R936H + Q939E + N971T + H972F + Q975R (UniProt Q14671)
T2 sequence: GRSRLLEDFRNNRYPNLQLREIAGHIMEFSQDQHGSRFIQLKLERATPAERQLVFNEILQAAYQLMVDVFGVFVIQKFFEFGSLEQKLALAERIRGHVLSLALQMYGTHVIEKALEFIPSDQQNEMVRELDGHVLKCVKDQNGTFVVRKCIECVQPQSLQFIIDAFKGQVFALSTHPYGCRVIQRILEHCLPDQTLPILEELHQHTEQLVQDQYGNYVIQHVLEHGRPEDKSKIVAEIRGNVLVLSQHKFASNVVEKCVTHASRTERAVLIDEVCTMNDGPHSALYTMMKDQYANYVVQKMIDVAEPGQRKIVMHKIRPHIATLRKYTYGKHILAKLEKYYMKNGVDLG

[3] = molecular target: T3, PUM1 PUF domain R3-THE R4-TFR C935T + R936H + Q939E + N971T + H972F + Q975R (UniProt Q14671)
T3 sequence: T2 sequence with V72N, F73Y

Sequence	binding signal (log2 enrichment (interaction score)) [1]	binding signal (log2 enrichment (interaction score)) [2]	binding signal (log2 enrichment (interaction score)) [3]
GGCUAGAACUAGUGGAUCCCCCGGCGCCCGGCGGCUCGAGCCCGGGUAAGCCGACGUAGUCUGCAUGCCGCCGGGCGCCAUGCCUGCAGGUCGACUCUAGAAAACAUG	-4.59	-5.61	-7.36
GGCUAGAACUAGUGGAUCCCCCGGCGCCCGGCGGCUCGAGCCCGGGUAAGUAGACAAAGUCUGCAUGCCGCCGGGCGCCAUGCCUGCAGGUCGACUCUAGAAAACAUG	-6.44	-5.28	-6.61
